Data published in patent CN112741804A.
Results are given in words; binding and its absence hold for the method and conditions named. Some entries that bind do so weakly or less than the wild type.

Amino acid sequences for entries named in this document (tags omitted). Residues count along the entry.
UniProt Q9NZQ7, residues 19-290: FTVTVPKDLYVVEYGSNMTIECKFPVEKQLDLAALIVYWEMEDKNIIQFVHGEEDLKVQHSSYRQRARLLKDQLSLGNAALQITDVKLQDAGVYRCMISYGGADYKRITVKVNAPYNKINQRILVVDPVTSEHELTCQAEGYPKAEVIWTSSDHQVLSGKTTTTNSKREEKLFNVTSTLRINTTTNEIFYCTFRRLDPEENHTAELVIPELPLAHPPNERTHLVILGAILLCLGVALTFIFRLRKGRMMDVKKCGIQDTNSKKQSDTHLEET

Target: PD-L1 expressed on cells (CHO cells expressing PD-L1; called 293F cells in the title and the result sentence) (human) (UniProt Q9NZQ7)
Assay: flow cytometry on PD-L1-expressing cells, goat anti-human IgG-PE

- binding: binds
B1: JS003 (humanized anti-PD-L1 antibody, clone 30) (antibody, human IgG4 S228P, kappa, V domains shown)
VH: QGQLQESGPSLVKPSQTLSLTCTVSGDSITRGYWNWIRKHPGKGLEYIGYISYTGSTYSNLSLKSRVTISRDTSKNQYYLKLSSVTAADTAVYYCATSTGWLDPVDYWGQGTLVTVSS
VL: DIVMTQSPDSLAVSLGERATINCKASQNVDTSVAWFQQKPGQPPKALIYSASFRYSGVPDRFSGSGSGTDFTLTISSLQAEDVAVYFCQQYYGYPFTFGQGTKLEIKR
